According to PubChem BioAssay AID485314 (National Center for Advancing Translational Sciences (NCATS), 2010):
Among all 340,000 compounds or so, about 4,500 (1.3%) were called active. The shares of active, inactive and inconclusive entries below differ from those in the screen. Calls come from the whole dose curve; as a rule, active = well fitted inhibition curve with a large enough effect; inconclusive = small, poorly fitted or top-dose-only effect, or another doubt; inactive = no such curve, though single readings can be large or run the other way. Where the call is inconclusive, the potency comes from a doubtful curve fit.

Target: DNA polymerase beta (Homo sapiens) (UniProt P06746)
Experiment: qHTS Assay for Inhibitors of DNA Polymerase Beta
Conditions: Pol beta primer extension/strand displacement, fluorescence kinetic; activity change, negative = inhibition: at 114 µM (top of the series)
In short: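 10 nM enzyme + cpd, 15 min RT; start with substrate 50 nM final; read 0 min and after 10 min RT. Corrected, normalized data; 4-parameter Hill curve fit.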
% is set by controls: 0 for no effect and ±100 for the full control effect; potency is the fitted concentration of half-maximal effect.

Question: `O=C(Nc1nnc(C2CC2)s1)C1CC(=O)N(c2ccc3c(c2)OCCO3)C1` (configuration not stated) was tested. Which Potency did it give?
Answer: Its Potency is inconclusive: 3.16 µM [inhibitor, partial curve].

Question: How did the Potency turn out when `Cc1oc2c(c1C(=O)Nc1cccc(C(=O)O)c1)CCCC2` was run?
Answer: The Potency was inconclusive: 39.8 µM [inhibitor, single point].

Question: `COCCNC(=O)c1cc2c(-c3ccc(Cl)cc3)nn(C)c2s1` was tested. Which Potency did it give?
Answer: The Potency was “inactive”.

Question: How did the Potency turn out when `CC1CCN(C(=O)c2cc3c(ccc4ccccc43)o2)CC1` was run?
Answer: The Potency was “inactive”.

Question: For `Cc1nc(NC2=NCN(CCCN3CCOCC3)CN2)nc2c(C)cccc12`, which Potency is on record?
Answer: The Potency was “inactive”.

Question: How did the Potency turn out when `N#Cc1ccccc1NC(=O)CN(Cc1ccccc1)Cc1ccccc1` was run?
Answer: The Potency was “inactive”.

Question: Which Potency does the source give for `Cc1ccc2cc(C#N)c(SCC(=O)NCc3ccco3)nc2c1` here?
Answer: The Potency was active: 22.4 µM.

Question: Which Potency does the source give for `NC(=O)c1ccc(N2CCC(C(N)=O)CC2)c([N+](=O)[O-])c1` here?
Answer: Its Potency is inconclusive: 89.1 µM [inhibitor, single point].

Question: Which Potency does the source give for `Cc1ccc2c(CC(=O)N3CCc4ccccc43)coc2c1` here?
Answer: The Potency was inconclusive: 0.562 µM [inhibitor, full curve, poor fit].

Question: With `COCCNC(=O)Cn1nc(-c2ccc(C)cc2)ccc1=O` as the compound, how does the Potency read?
Answer: Its Potency is inconclusive: 89.1 µM [inhibitor, single point].

Question: How did the Potency turn out when `COc1cc(NC(=O)c2noc3c2CCC3)c(OC)cc1Cl` was run?
Answer: Its Potency is active: 10 µM.

Question: With `CCc1sc(C(C2C(=O)CC(C)(C)CC2=O)C2C(=O)CC(C)(C)CC2=O)cc1[N+](=O)[O-]` as the compound, how does the Potency read?
Answer: The Potency was inconclusive: 63.1 µM [inhibitor, single point].

Question: For `Cc1cc(C)cc(NC(=O)C(=O)NCC(c2ccc3c(c2)OCO3)N2CCOCC2)c1` (configuration not stated), which Potency is on record?
Answer: Its Potency is “inactive”.

Question: `Clc1ccc(-c2noc(CN3CCCC3)n2)cc1` was tested. Which Potency did it give?
Answer: Its Potency is inconclusive: 79.4 µM [inhibitor, single point].

Question: With `Cc1cc(O)c(NC(=O)c2ccc(Br)o2)cc1C` as the compound, how does the Potency read?
Answer: Its Potency is inconclusive: 70.8 µM [inhibitor, partial curve].

Question: For `O=C(COC(=O)C1CC1)Nc1ncc(C(F)(F)F)cc1Cl`, which Potency is on record?
Answer: The Potency was “inactive”.

Question: Which Potency does the source give for `CS(=O)(=O)Nc1cccc(-c2cn3ccccc3n2)c1` here?
Answer: The Potency was inconclusive: 79.4 µM [inhibitor, single point].

Question: How did the Potency turn out when `Cc1ccc(NC(=O)CN(CCc2ccccc2)S(=O)(=O)c2ccccc2)c(C)c1` was run?
Answer: The Potency was “inactive”.

Question: `CCOc1ccc(C2C(=O)N(C3CCCCCC3)CC(=O)N2CCC2=CCCCC2)cc1OC` (configuration not stated) was tested. Which Potency did it give?
Answer: The Potency was “inactive”.

Question: How did the activity change, negative = inhibition turn out when `Cc1ccc(NC(=O)CSc2nc3ncc(Cl)cc3[nH]2)c(C)c1` was run?
Answer: The activity change, negative = inhibition was inconclusive: -75.5% [inhibitor].

Question: `O=C(N/N=C/c1ccc2c(c1)OCO2)c1ccc2c(c1)OCO2` was tested. Which Potency did it give?
Answer: The Potency was inconclusive: 79.4 µM [inhibitor, single point].

Question: `Cc1ccccc1CNC(=O)c1cccc(NC(=O)c2nsc3ccccc23)c1` was tested. Which Potency did it give?
Answer: Its Potency is “inactive”.
